Our source for the binding values is paper doi:10.1101/2020.03.16.994293.

Chains of the proteins cited; added tags and fusions are not shown.
UniProt P46938: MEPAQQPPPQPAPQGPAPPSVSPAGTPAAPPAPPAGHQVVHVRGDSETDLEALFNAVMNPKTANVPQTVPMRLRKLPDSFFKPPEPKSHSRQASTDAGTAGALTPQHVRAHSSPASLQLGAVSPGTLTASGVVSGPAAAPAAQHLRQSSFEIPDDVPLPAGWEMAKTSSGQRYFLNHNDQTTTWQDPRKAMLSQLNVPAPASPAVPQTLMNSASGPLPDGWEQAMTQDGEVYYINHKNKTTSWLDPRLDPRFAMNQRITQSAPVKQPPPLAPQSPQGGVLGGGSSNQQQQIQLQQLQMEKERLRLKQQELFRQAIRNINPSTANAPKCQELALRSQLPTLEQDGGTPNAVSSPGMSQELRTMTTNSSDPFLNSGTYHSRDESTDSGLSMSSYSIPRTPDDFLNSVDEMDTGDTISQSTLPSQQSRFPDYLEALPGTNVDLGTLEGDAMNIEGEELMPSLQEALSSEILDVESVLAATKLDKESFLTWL

Results are given in words; binding and its absence hold for the method and conditions named. Binding seen in cells or lysates may run through a third protein. Some binding calls cover weakened binding; strength is not graded here.

The experiment deals with T1, VE-cadherin (mouse (endogenous in mouse brain endothelial cells)) (UniProt P55284).
T1 sequence: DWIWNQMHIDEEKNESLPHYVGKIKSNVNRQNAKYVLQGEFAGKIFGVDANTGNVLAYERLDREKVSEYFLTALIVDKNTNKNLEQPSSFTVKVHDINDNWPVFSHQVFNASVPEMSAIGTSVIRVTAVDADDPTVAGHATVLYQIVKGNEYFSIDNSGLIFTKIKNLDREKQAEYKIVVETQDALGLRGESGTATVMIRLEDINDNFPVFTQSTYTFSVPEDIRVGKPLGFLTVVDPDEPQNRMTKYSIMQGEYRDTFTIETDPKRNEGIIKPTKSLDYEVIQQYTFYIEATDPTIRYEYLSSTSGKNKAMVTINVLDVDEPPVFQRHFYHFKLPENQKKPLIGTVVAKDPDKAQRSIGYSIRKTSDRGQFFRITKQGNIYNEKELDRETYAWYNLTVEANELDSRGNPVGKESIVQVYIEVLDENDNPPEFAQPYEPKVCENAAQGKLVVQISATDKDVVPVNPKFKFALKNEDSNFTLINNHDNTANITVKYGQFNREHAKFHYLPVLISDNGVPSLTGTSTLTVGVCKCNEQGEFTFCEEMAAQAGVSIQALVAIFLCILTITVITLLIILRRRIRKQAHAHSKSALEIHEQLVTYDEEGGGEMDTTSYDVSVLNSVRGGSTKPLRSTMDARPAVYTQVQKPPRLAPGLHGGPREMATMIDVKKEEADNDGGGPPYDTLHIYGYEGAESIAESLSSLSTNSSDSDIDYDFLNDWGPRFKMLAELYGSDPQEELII
In words: co-IP.

For the substance “yes-associated protein (YAP) (from UniProt P46938 1-488)”, the binding entry is “binds”.
